Results deposited as PubChem BioAssay AID1508588 (Peter MacCallum Cancer Centre, 2020).
Aim: 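Genome-wide search for knock-downs that heighten vemurafenib action in melanoma cells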 (primary screen). System: human WM266.4 melanoma cells (BRAF V600 mutant). Knock-down reagent: siRNA pool against human genes, 40 nM. Timing: 96 h from transfection to read-out. Challenge: vemurafenib 300 nM (about IC25), added 48 h after transfection, for 48 h; comparison arm got DMSO vehicle only. Measured: 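Ratios to non-targeting siRNA for cell gain, counted as DAPI nuclei after minus before drug and averaged over two replicates, and for absorbance-read medium lactate per cell; both binned into fold-change classes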. Direction: cell gain with vemurafenib: higher = more cell gain than with non-targeting siRNA; lactate per cell with vemurafenib: higher = more lactate made per cell. Rule for the call: 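Enhancement is called by pairing each knock-down's vehicle-arm and drug-arm fold-change classes for viability or glycolysis; which class combinations qualify is not given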. Meaning of the calls: active = enhances vemurafenib effect; inactive = no enhancement seen.
The whole screen tested about 18,000 reagents; below is a part drawn at random. In the full data, 790 (4.4%) were called active. 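Calls rest on a combination of fold-change classes in drug and vehicle arms, not all shown here.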

The first 4 entries as a preview:
Gene	PubChem SID	cell gain with vemurafenib	lactate per cell with vemurafenib	activity call
TMEM132D (transmembrane protein 132D)	SID134326734	1.48	0.62	inactive
SERPINA12 (serpin family A member 12)	SID135621634	0.72	1	inactive
TECTA (tectorin alpha)	SID135622251	0.71	0.57	active
EGFL8 (EGF like domain multiple 8)	SID152147835	0.83	0.98	inactive

Main list, from the start:
Gene	PubChem SID	cell gain with vemurafenib	lactate per cell with vemurafenib	activity call
TMEM132D (transmembrane protein 132D)	SID134326734	1.48	0.62	inactive
SERPINA12 (serpin family A member 12)	SID135621634	0.72	1	inactive
TECTA (tectorin alpha)	SID135622251	0.71	0.57	active
EGFL8 (EGF like domain multiple 8)	SID152147835	0.83	0.98	inactive
KCNS2	SID152154063	0.5	1.4	inactive
ZNF14 (zinc finger protein 14)	SID135624064	0.24	0.57	inactive
ABTB1 (ankyrin repeat and BTB domain containing 1)	SID135622561	0.87	0.36	inactive
MVP (major vault protein)	SID134310700	0.02	0.34	active
C14orf181 (retired record)	SID152156607	0.13	2.12	inactive
EXOC5 (exocyst complex component 5)	SID152150783	0.62	1.02	inactive
RFLNA (refilin A)	SID135623582	0.15	1.52	inactive
LMNA (lamin A/C)	SID135620920	0.81	1.62	inactive
MID1 (midline 1)	SID152154448	1.04	0.82	inactive
LYAR (Ly1 antibody reactive)	SID134324746	0.83	0.74	inactive
GAPDH (glyceraldehyde-3-phosphate dehydrogenase)	SID152147631	0.97	1.04	inactive
PDIA6 (protein disulfide isomerase family A member 6)	SID152154373	0.72	1.36	inactive
TCF12 (transcription factor 12)	SID134311750	0.36	1.78	inactive
RALGPS1 (Ral GEF with PH domain and SH3 binding motif 1)	SID135621534	1.04	1.02	inactive
PRH2 (proline rich protein HaeIII subfamily 2)	SID152154815	0.67	1.62	inactive
CASP1 (caspase 1)	SID152150505	0.59	0.87	inactive
AKR1B15 (aldo-keto reductase family 1 member B15)	SID135625166	0.78	0.73	inactive
P2RX2 (purinergic receptor P2X 2)	SID134311701	0.27	0.3	inactive
DEFA6 (defensin alpha 6)	SID134315963	0.61	1.75	inactive
PLCZ1 (phospholipase C zeta 1)	SID134313183	0.98	0.94	inactive
MIXL1 (Mix paired-like homeobox)	SID134318861	0.69	1.04	inactive
TBC1D8B (TBC1 domain family member 8B)	SID134324395	0.45	0.82	inactive
PCK2 (phosphoenolpyruvate carboxykinase 2, mitochondrial)	SID56479157	0.85	0.71	inactive
PXDC1 (PX domain containing 1)	SID134323162	0.97	1.31	inactive
ANXA6 (annexin A6)	SID135622076	0.68	1.24	inactive
TOMM7 (translocase of outer mitochondrial membrane 7)	SID134317971	0.12	1.99	inactive
C1orf52 (chromosome 1 open reading frame 52)	SID152148955	1.13	0.74	inactive
EXO5 (exonuclease 5)	SID134318387	0.54	1.43	inactive
MVB12A (multivesicular body subunit 12A)	SID152147508	0.77	0.54	inactive
FCF1 (FCF1 rRNA-processing protein)	SID152148300	0.24	1.06	inactive
FBN1 (fibrillin 1)	SID152152325	0.59	0.84	inactive
CILP (cartilage intermediate layer protein)	SID152156131	1.03	0.62	inactive
TGFA (transforming growth factor alpha)	SID152154003	0.77	0.36	inactive
CPEB1 (cytoplasmic polyadenylation element binding protein 1)	SID135623292	0.8	0.68	inactive
C14orf39 (chromosome 14 open reading frame 39)	SID134321833	0.5	0.78	inactive
ADTRP (androgen dependent TFPI regulating protein)	SID135622855	0.38	0.15	active
SCAP (SREBF chaperone)	SID152150787	1.31	0.8	inactive
HRH3 (histamine receptor H3)	SID134311070	1.02	0.64	inactive
KRTAP9-3 (keratin associated protein 9-3)	SID134317741	0.42	2	inactive
FIP1L1 (factor interacting with PAPOLA and CPSF1)	SID134318783	0.22	1.43	inactive
FGD4 (FYVE, RhoGEF and PH domain containing 4)	SID134312244	0.66	1.17	inactive
POU4F3 (POU class 4 homeobox 3)	SID134316855	0.99	0.86	inactive
PLCH2 (phospholipase C eta 2)	SID135624696	0.39	1.75	inactive
FRAT1 (FRAT regulator of Wnt signaling pathway 1)	SID134316334	0.82	0.68	inactive
LAMP2 (lysosome associated membrane protein 2)	SID134316036	0.76	1.03	inactive
BHLHE41 (basic helix-loop-helix family member e41)	SID134314692	0.54	1.36	inactive
IFNB1 (interferon beta 1)	SID135623798	0.86	0.5	inactive
HDAC2 (histone deacetylase 2)	SID135620688	0.37	0.67	inactive
OSBPL2 (oxysterol binding protein like 2)	SID134314933	0.55	0.44	inactive
P2RY12 (purinergic receptor P2Y12)	SID134311131	0.34	0.57	active
CACNA1H (calcium voltage-gated channel subunit alpha1 H)	SID152150286	0.66	1.27	inactive
ASB11 (ankyrin repeat and SOCS box containing 11)	SID135622492	0.97	0.78	inactive
TSKS (testis specific serine kinase substrate)	SID56479267	0.55	1.5	inactive
